# Test results published in the supplement of paper PMC8728848.
# Some of the results follow.
# Experiments:
# Assay in all cases: glycan array binding signal (z-score within array); higher = stronger binding
# Conditions in all cases: glycan notation: IUPAC condensed, linker removed
# [1] = target: GlcNAc(b1-2)Gal(b1-3)GalNAc
# Procedure, shortened: (§1)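 The Consortium for Functional Glycomics database supplied 3228 glycan arrays, of which those lacking an available protein sequence were dropped. The binding signal, a within-array Z-score, was averaged across arrays of the same protein sequence and across linkers. Negative scores can be read as non-binding.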
# [2] = target: GlcNAc(b1-2)Man(a1-3)[GlcNAc(b1-2)Man(a1-6)]Man(b1-4)GlcNAc(b1-4)GlcNAc
# Procedure, shortened: as §1
# [3] = target: GlcNAc(b1-3)Gal
# Procedure, shortened: as §1
# [4] = target: GlcNAc(b1-3)Gal(b1-3)GalNAc
# Procedure, shortened: as §1
# [5] = target: GlcNAc(b1-3)Gal(b1-4)Glc
# Procedure, shortened: as §1
# [6] = target: GlcNAc(b1-3)Gal(b1-4)GlcNAc
# Procedure, shortened: as §1
# [7] = target: GlcNAc(b1-3)Gal(b1-4)GlcNAc(b1-3)Gal(b1-4)GlcNAc
# Procedure, shortened: as §1
# [8] = target: GlcNAc(b1-3)GalNAc
# Procedure, shortened: as §1
# [9] = target: GlcNAc(b1-3)[GlcNAc(b1-4)][GlcNAc(b1-6)]GlcNAc
# Procedure, shortened: as §1
# [10] = target: GlcNAc(b1-3)[GlcNAc(b1-6)]Gal(b1-4)GlcNAc
# Procedure, shortened: as §1
# [11] = target: GlcNAc(b1-3)[GlcNAc(b1-6)]GalNAc
# Procedure, shortened: as §1
# [12] = target: GlcNAc(b1-4)Gal(b1-4)GlcNAc
# Procedure, shortened: as §1
# [13] = target: GlcNAc(b1-4)GlcNAc(b1-4)GlcNAc
# Procedure, shortened: as §1
# [14] = target: GlcNAc(b1-4)GlcNAc(b1-4)GlcNAc(b1-4)GlcNAc(b1-4)GlcNAc
# Procedure, shortened: as §1
# [15] = target: GlcNAc(b1-4)GlcNAc(b1-4)GlcNAc(b1-4)GlcNAc(b1-4)GlcNAc(b1-4)GlcNAc
# Procedure, shortened: as §1
# [16] = target: GlcNAc(b1-4)[GlcNAc(b1-6)]GalNAc
# Procedure, shortened: as §1
# [17] = target: GlcNAc(b1-6)Gal(b1-4)GlcNAc
# Procedure, shortened: as §1
# [18] = target: GlcNAc(b1-6)GalNAc
# Procedure, shortened: as §1
# [19] = target: Kdn(a2-3)Gal(b1-3)GlcNAc
# Procedure, shortened: as §1
# [20] = target: Kdn(a2-3)Gal(b1-4)GlcNAc
# Procedure, shortened: as §1
# [21] = target: Man(a1-2)Man(a1-2)Man(a1-3)Man
# Procedure, shortened: as §1
# [22] = target: Man(a1-2)Man(a1-2)Man(a1-6)[Man(a1-3)]Man
# Procedure, shortened: as §1
# [23] = target: Man(a1-2)Man(a1-3)Man
# Procedure, shortened: as §1
# [24] = target: Man(a1-2)Man(a1-3)[Man(a1-2)Man(a1-6)]Man
# Procedure, shortened: as §1
# [25] = target: Man(a1-2)Man(a1-3)[Man(a1-2)Man(a1-6)]Man(a1-6)[Man(a1-2)Man(a1-2)Man(a1-3)]Man(b1-4)GlcNAc(b1-4)GlcNAc
# Procedure, shortened: as §1
# [26] = target: Man(a1-2)Man(a1-3)[Man(a1-2)Man(a1-6)]Man(a1-6)[Man(a1-3)[Man(a1-6)]Man(a1-6)]Man(b1-4)GlcNAc(b1-4)GlcNAc
# Procedure, shortened: as §1
# [27] = target: Man(a1-2)Man(a1-3)[Man(a1-6)]Man(a1-6)[Man(a1-2)Man(a1-3)]Man(b1-4)GlcNAc(b1-4)GlcNAc
# Procedure, shortened: as §1
# [28] = target: Man(a1-2)Man(a1-6)[Man(a1-3)]Man(a1-6)[Man(a1-2)Man(a1-2)Man(a1-3)]Man(b1-4)GlcNAc(b1-4)GlcNAc
# Procedure, shortened: as §1
# [29] = target: Man(a1-3)[Man(a1-6)]Man
# Procedure, shortened: as §1
# [30] = target: Man(a1-3)[Man(a1-6)]Man(a1-6)[Man(a1-3)]Man(b1-4)GlcNAc(b1-4)GlcNAc
# Procedure, shortened: as §1
# [31] = target: Man(a1-3)[Man(a1-6)]Man(b1-4)GlcNAc(b1-4)GlcNAc
# Procedure, shortened: as §1
# [32] = target: Man(b1-4)GlcNAc
# Procedure, shortened: as §1
# [33] = target: Neu5Ac(a2-3)Gal
# Procedure, shortened: as §1
# [34] = target: Neu5Ac(a2-3)Gal(b1-3)GalNAc
# Procedure, shortened: as §1
# [35] = target: Neu5Ac(a2-3)Gal(b1-3)GalNAc(b1-3)Gal(a1-4)Gal(b1-4)Glc
# Procedure, shortened: as §1
# [36] = target: Neu5Ac(a2-3)Gal(b1-3)GalNAc(b1-3)Gal(b1-4)GlcNAc
# Procedure, shortened: as §1
# [37] = target: Neu5Ac(a2-3)Gal(b1-3)GalNAc(b1-4)[Neu5Ac(a2-3)]Gal(b1-4)Glc
# Procedure, shortened: as §1
# [38] = target: Neu5Ac(a2-3)Gal(b1-3)GalNAc6S
# Procedure, shortened: as §1
# [39] = target: Neu5Ac(a2-3)Gal(b1-3)GlcNAc
# Procedure, shortened: as §1
# [40] = target: Neu5Ac(a2-3)Gal(b1-3)GlcNAc(b1-3)Gal(b1-3)GlcNAc
# Procedure, shortened: as §1
# [41] = target: Neu5Ac(a2-3)Gal(b1-3)GlcNAc6S
# Procedure, shortened: as §1
# [42] = target: Neu5Ac(a2-3)Gal(b1-3)[Fuc(a1-4)]GlcNAc
# Procedure, shortened: as §1
# [43] = target: Neu5Ac(a2-3)Gal(b1-3)[Fuc(a1-4)]GlcNAc(b1-3)Gal(b1-4)[Fuc(a1-3)]GlcNAc
# Procedure, shortened: as §1
# [44] = target: Neu5Ac(a2-3)Gal(b1-3)[Neu5Ac(a2-3)Gal(b1-4)]GlcNAc
# Procedure, shortened: as §1
# [45] = target: Neu5Ac(a2-3)Gal(b1-3)[Neu5Ac(a2-6)]GalNAc
# Procedure, shortened: as §1
binder,measurement,setting,value
Fap1 (Streptococcus parasanguis) (protein) KATSKGTEEKQDSVRENLDKMISEAEVLNDMAARKLITLDAEQQLELMKSLVATQSQLEATKNLIGDPNATVADLQIAYTTLGNNTQALGNELIKLNPNGQIYAVLNNTEASRAATLRSTTTGTKTTFTISDFSNGGTQYYWAGGNANNLKNPISSISAVYDSATGKISWTVEYDPTTILKSPALKTLKTYTGIYIDTSSDSKLSTPTNVLIDGAATNPVTNFYGNGSKGIEYVSKGTTKGVTKHTITFDTAFSGRANDLADLEIKMLAATTLSDPHFYEDGSKGNYGRYNGQTAPYVIANDSGTAIGGYQVSGVNADSIPSDTT,glycan array binding signal (z-score),[1],-0.517
same,glycan array binding signal (z-score),[2],-0.049
same,glycan array binding signal (z-score),[3],-0.549
same,glycan array binding signal (z-score),[4],2.08
same,glycan array binding signal (z-score),[5],-0.837
same,glycan array binding signal (z-score),[6],-0.431
same,glycan array binding signal (z-score),[7],0.652
same,glycan array binding signal (z-score),[8],-0.326
same,glycan array binding signal (z-score),[9],-0.251
same,glycan array binding signal (z-score),[10],-0.818
same,glycan array binding signal (z-score),[11],-0.872
same,glycan array binding signal (z-score),[12],0.396
same,glycan array binding signal (z-score),[13],-0.91
same,glycan array binding signal (z-score),[14],-1
same,glycan array binding signal (z-score),[15],-0.71
same,glycan array binding signal (z-score),[16],-0.634
same,glycan array binding signal (z-score),[17],-0.299
same,glycan array binding signal (z-score),[18],-0.345
same,glycan array binding signal (z-score),[19],-0.673
same,glycan array binding signal (z-score),[20],-0.249
same,glycan array binding signal (z-score),[21],-0.294
same,glycan array binding signal (z-score),[22],-0.611
same,glycan array binding signal (z-score),[23],0.189
same,glycan array binding signal (z-score),[24],-0.447
same,glycan array binding signal (z-score),[25],-0.857
same,glycan array binding signal (z-score),[26],-0.873
same,glycan array binding signal (z-score),[27],0.055
same,glycan array binding signal (z-score),[28],-0.826
same,glycan array binding signal (z-score),[29],0.624
same,glycan array binding signal (z-score),[30],-0.797
same,glycan array binding signal (z-score),[31],-0.606
same,glycan array binding signal (z-score),[32],-0.682
same,glycan array binding signal (z-score),[33],-0.511
same,glycan array binding signal (z-score),[34],-0.922
same,glycan array binding signal (z-score),[35],-0.606
same,glycan array binding signal (z-score),[36],-0.664
same,glycan array binding signal (z-score),[37],-0.683
same,glycan array binding signal (z-score),[38],-0.786
same,glycan array binding signal (z-score),[39],-0.518
same,glycan array binding signal (z-score),[40],-0.364
same,glycan array binding signal (z-score),[41],-1.03
same,glycan array binding signal (z-score),[42],-0.112
same,glycan array binding signal (z-score),[43],0.579
same,glycan array binding signal (z-score),[44],-0.452
same,glycan array binding signal (z-score),[45],-0.209

# Shown with tabs: entries from further up
binder	measurement	setting	value
Fap1 (Streptococcus parasanguis) (protein) KATSKGTEEKQDSVRENLDKMISEAEVLNDMAARKLITLDAEQQLELMKSLVATQSQLEATKNLIGDPNATVADLQIAYTTLGNNTQALGNELIKLNPNGQIYAVLNNTEASRAATLRSTTTGTKTTFTISDFSNGGTQYYWAGGNANNLKNPISSISAVYDSATGKISWTVEYDPTTILKSPALKTLKTYTGIYIDTSSDSKLSTPTNVLIDGAATNPVTNFYGNGSKGIEYVSKGTTKGVTKHTITFDTAFSGRANDLADLEIKMLAATTLSDPHFYEDGSKGNYGRYNGQTAPYVIANDSGTAIGGYQVSGVNADSIPSDTT	glycan array binding signal (z-score)	[33]	-0.511
same	glycan array binding signal (z-score)	[36]	-0.664
